These are yes or no findings as the source states them, for the method shown. A result given as binding can be weak or reduced; the word gives no strength.

Assay [1] deals with collagen I (purified, Sigma; acid-soluble human collagen type I in BIAcore) (human). As to the kind of experiment: precipitation with insoluble collagen I fibrils from cell lysates, Western blot with anti-hLAIR-1 mAbs. A general note: In western blotting, separated proteins are transferred to a membrane and probed.
For assay [2] the target is unchanged. As to the kind of experiment: adhesion of transfected K562 cells to plate-bound collagen.
The target of assay [3] is collagen II (purified, Chemicon International). The assay is described as above.
Assay [4] addresses collagen I (purified, Sigma; acid-soluble human collagen type I in BIAcore) (human). The assay is described as follows: cell spreading on immobilized collagen I, microscopy.
Assay [5] shares this target. The assay is described as follows: blocking assay: coated collagen I pre-incubated with concentrated supernatant, blocked partner hLAIR-1 on K562 cells.
For assay [6] the target is unchanged. As to the kind of experiment: blocking of adhesion of hLAIR-1 K562 cells to plate-bound collagen I by supernatant with wild-type LAIR-2.

B1: human LAIR-1 (hLAIR-1a) expressed on cells (receptor, UniProt Q6GTX8 22-287, looked up)
chain: QEEDLPRPSISAEPGTVIPLGSHVTFVCRGPVGVQTFRLERDSRSTYNDTEDVSQASPSESEARFRIDSVREGNAGLYRCIYYKPPKWSEQSDYLELLVKESSGGPDSPDTEPGSSAGPTQRPSDNSHNEHAPASQGLKAEHLYILIGVSVVFLFCLLLLVLFCLHRQNQIKQGPPRSKDEEQKPQQRPDLAVDVLERTADKATVNGLPEKDRETDTSALAAGSSQEVTYAQLDHWALTQRTARAVSPQSTKPMAESITYAAVARH
Consider B1, for which the binding entry in assay [1], in assay [2] and in assay [3] was “binds” in each case.

B2: mouse LAIR-1 (mLAIR-1a) expressed on K562 cells (receptor, UniProt Q8BG84 22-263, looked up)
chain: QEGSLPDITIFPNSSLMISQGTFVTVVCSYSDKHDLYNMVRLEKDGSTFMEKSTEPYKTEDEFEIGPVNETITGHYSCIYSKGITWSERSKTLELKVIKENVIQTPAPGPTSDTSWLKTYSIYIFTVVSVIFLLCLSALLFCFLRHRQKKQGLPNNKRQQQRPEERLNLATNGLEMTPDIVADDRLPEDRWTETWTPVAGDLQEVTYIQLDHHSLTQRAVGAVTSQSTDMAESSTYAAIIRH
Consider B2, for which, in assay [4], the binding result is “binds”.

B3: LAIR-2 (wild-type, secreted/soluble protein) (receptor, human, UniProt Q6ISS4-2 22-135, looked up)
chain: QEGALPRPSISAEPGTVISPGSHVTFMCRGPVGVQTFRLEREDRAKYKDSYNVFRLGPSESEARFHIDSVSEGNAGLYRCLYYKPPGWSEHSDFLELLVKGTVPGTEASGFDAP
On to B3, for which the binding entry in assay [5] and in assay [6] was “binds” throughout.

These data come from US20090304686A1, “INTERFERING IN ACTIVATION OF AN IMMUNE CELL BY INFLUENCING INTERACTION OF LAIR AND COLLAGEN” (UNIVERSOTAIR MEDISCH CENTRUM UTRECHT, priority 2006, published 2009).
